Results are given in words; binding and its absence hold for the method and conditions named. In cells and extracts the contact can be indirect. Binding calls can cover weak binding; strength is not graded here.

For the experiment, the target named is E-cadherin (human (endogenous in MCF-7/6)). Briefly: co-IP; endogenous proteins in total lysates of MCF-7/6 cells metabolically labelled with Tran35S (cells treated for 2 h with 1 uM RA, with solvent, or untreated); precipitated with HECD-1 (anti-E-cadherin) or immune serum 1522 (anti-beta-catenin) and protein G sepharose; washed three times with lysis buffer; SDS-PAGE (6%) and fluorography.

B1: gamma-catenin (protein, UniProt P14923 1-745)
chain: MEVMNLMEQPIKVTEWQQTYTYDSGIHSGANTCVPSVSSKGIMEEDEACGRQYTLKKTTTYTQGVPPSQGDLEYQMSTTARAKRVREAMCPGVSGEDSSLLLATQVEGQATNLQRLAEPSQLLKSAIVHLINYQDDAELATRALPELTKLLNDEDPVVVTKAAMIVNQLSKKEASRRALMGSPQLVAAVVRTMQNTSDLDTARCTTSILHNLSHHREGLLAIFKSGGIPALVRMLSSPVESVLFYAITTLHNLLLYQEGAKMAVRLADGLQKMVPLLNKNNPKFLAITTDCLQLLAYGNQESKLIILANGGPQALVQIMRNYSYEKLLWTTSRVLKVLSVCPSNKPAIVEAGGMQALGKHLTSNSPRLVQNCLWTLRNLSDVATKQEGLESVLKILVNQLSVDDVNVLTCATGTLSNLTCNNSKNKTLVTQNSGVEALIHAILRAGDKDDITEPAVCALRHLTSRHPEAEMAQNSVRLNYGIPAIVKLLNQPNQWPLVKATIGLIRNLALCPANHAPLQEAAVIPRLVQLLVKAHQDAQRHVAAGTQQPYTDGVRMEEIVEGCTGALHILARDPMNRMEIFRLNTIPLFVQLLYSSVENIQRVAAGVLCELAQDKEAADAIDAEGASAPLMELLHSRNEGTATYAAAVLFRISEDKNPDYRKRVSVELTNSLFKHDPAAWEAAQSMIPINEPYGDDMDATYRPMYSSDVPLDPLEMHMDMDGDYPIDTYSDGLRPPYPTADHMLA
Regarding B1, the binding result was “binds”.

Values taken from paper PMC2034086.
